Measured values reported in patent publication EP4640709A1.
Results are given in words; binding and its absence hold for the method and conditions named. A result given as binding can be weak or reduced; the word gives no strength.

Experiments:
[1] = molecular target: hCX3CR1-1 (chimeric CX3CR1); test: flow cytometry, chimeric CX3CR1-expressing Ba/F3 cells
[2] = molecular target: hCX3CR1-4 (chimeric CX3CR1); test: as above
[3] = molecular target: hCX3CR1-3 (chimeric CX3CR1); test: as above
[4] = molecular target: hCX3CR1-2 (chimeric CX3CR1); test: as above
[5] = molecular target: mCX3CR1-1 (chimeric CX3CR1); test: as above
[6] = molecular target: mCX3CR1-4 (chimeric CX3CR1); test: as above
[7] = molecular target: mCX3CR1-4 (chimeric CX3CR1); test: flow cytometry, chimeric CX3CR1-expressing Ba/F3 cells, relative to Synagis
[8] = molecular target: hCX3CR1-1 (chimeric CX3CR1); test: as above
[9] = molecular target: hCX3CR1-4 (chimeric CX3CR1); test: as above
[10] = molecular target: hCX3CR1-3 (chimeric CX3CR1); test: as above
[11] = molecular target: hCX3CR1-2 (chimeric CX3CR1); test: as above
[12] = molecular target: mCX3CR1-1 (chimeric CX3CR1); test: as above

Measured: binding

B1: m1F8-1 antibody (antibody, V domains shown)
VH: QVQLQQSGAELARPGASVKLSCKASGFTFTNYWMQWIKQRPGQGLEWIGAIYPGSGESRYTRKFKGKATLTADKSSSTAYMQLNSLASEDSAVYYCARWAGYSRNAAYWGQGTLVTVSA
VL: DVLMTQTPLSLPVSLGDQASISCRSSQSIVHSSGNTYLEWYLQKPGQSPKLLIYKVSNRFSGVPDRFSGSGSGTDFTLKISRVEAEDLGVYYCFQGSHIPPTFGGGTKLEIK
binds: [1] | [2] | [3] | [4] | [5]

B2: m1F8-2 antibody (antibody, V domains shown)
VH: QVQLQQSGAELARPGASVKLSCKASGFTFTNYWMQWIKQRPGQGLEWIGAIYPGSGESRYTRKFKGKATLTADKSSSTAYMQLNSLASEDSAVYYCARWAGYSRNAAYWGQGTLVTVSA
VL: DVLMTQTPLSLPVSLGDQASISCRSRQSIVHSSGNTYLEWYLQKPGQSPKLLIYKVSNRFSGVPDRFSGSGSGTDFTLKISRVEAEDLGVYYCFQGSHIPPTFGGGTKLEIK
binds: [6] | [1] | [2] | [3] | [4] | [5]

B3: h1F8-2-2 antibody (antibody, IgG1, V domains shown)
VH: QVQLVQSGAEVKKPGSSVKVSCKASGFTFTNYWMQWIRQAPGQGLEWIGAIYPGSGESRYTRKFKGKATITADKSTSTAYMELSSLRSEDTAVYYCARWAGYSRNAAYWGQGTLVTVSS
VL: DIVMTQTPLSLPVTPGEPASISCRSRQSIVHSSGNTYLEWYLQKPGQSPQLLIYKVSNRFSGVPDRFSGSGSGTDFTLKISRVEAEDVGVYYCFQGSHIPPTFGGGTKVEIK
binds: [7] | [8] | [9] | [10] | [11] | [12]
